Measured values from patent US20250011427A1 (CONCEPT TO MEDICINE BIOTECH, published 2025).

B1: 153A6B1 chimeric antibody (antibody, V domains shown)
VH: QVQLKESGPGLVQPSQTLSLTCTVSGFSLTSYNIHWVRQPPGKGLEWMGRIRYNGDTSYNSALKSRLSISRDTSKNQVFLKMSSLQTDDTGTYYCTRGPYGGSREPLFDYWGQGVMVTVSS
VL: DIKMTQSPSFLSAAVGDRVTINCKTSQNINKYLNWFQQKLGAAPKLLIYTTNNLQTGIPSRFSGSGSGTDFTLTISSLQPEDVATYFCLQHGSGYTFGAGTKLELK
B2: 155A9B1 chimeric antibody (antibody, V domains shown)
VH: B1 VH with I34V, I51V, V78A, S83N, T87I, R104S
VL: B1 VL with A14S, T25A, A42E, K45R, G92N
B3: 192A7B9 chimeric antibody (antibody, V domains shown)
VH: B1 VH with T21N, I34V, I51M, S83N, Y100R, S103Y, R104Y, E105S, P106A
VL: DIQMTQSPSFLSASVGDRVTINCKASQNINRYLNWYQQKLGDAPKVLISIANSLQTGIPSRFSGSGSGTDFTLTISSLQPEDVATYFCLQHNSWYTFGAGTKLELK

Each binder was assayed against mouse CD3 protein (mouse) (assay: ELISA, plate coated with mouse CD3 protein).

Binder	binding
B1	no binding (tested: starting from 15 µg/ml)
B2	no binding (tested: starting from 15 µg/ml)
B3	no binding (tested: starting from 15 µg/ml)

The binders below were run against cynomolgus CD3 protein (cynomolgus) (assay: ELISA).

binding	Binder
binds	B1
binds	B2
binds	B3

Changes are numbered by the printed parent chain. These are yes or no findings as the source states them, for the method shown. For part of these data: A result given as binding can be weak or reduced; the word gives no strength.
